# Results as given in patent publication US20210024604A1 (Novo Nordisk A/S, priority 2009, published 2021).
# Experiment: peptide synthesis
# Conditions: lipidation step; for final HPLC purity: C8 column
substance,measurement,setting,value
B29N^ε-15-(4-Boronobenzenesulfonylamino)pentadecanoyl desB30 Human Insulin,step yield,,21%
same,final HPLC purity,acidic HPLC,99.3%
same,final HPLC purity,neutral HPLC,99.5%
